In the experiment the target is KP37 (Tb927.6.4510) (Trypanosoma brucei (endogenous in SmOx procyclic cells)) (UniProt Q587B7). Kind of experiment: affinity purification with mass spectrometry.

Protein sequences, listed by entry. Tags and fused reporters are not part of them. Lines headed by an entry give the natural chain unless they say otherwise; changes in a name come on top.
UniProt Q587B7: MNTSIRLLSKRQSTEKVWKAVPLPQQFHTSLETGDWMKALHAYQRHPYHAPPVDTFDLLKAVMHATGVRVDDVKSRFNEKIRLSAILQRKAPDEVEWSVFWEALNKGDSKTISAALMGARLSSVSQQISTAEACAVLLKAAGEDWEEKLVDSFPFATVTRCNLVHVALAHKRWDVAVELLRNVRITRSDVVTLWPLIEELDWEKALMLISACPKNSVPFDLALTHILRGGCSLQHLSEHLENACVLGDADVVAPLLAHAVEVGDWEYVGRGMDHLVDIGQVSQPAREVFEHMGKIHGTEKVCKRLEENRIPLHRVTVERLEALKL
UniProt Q57WZ1: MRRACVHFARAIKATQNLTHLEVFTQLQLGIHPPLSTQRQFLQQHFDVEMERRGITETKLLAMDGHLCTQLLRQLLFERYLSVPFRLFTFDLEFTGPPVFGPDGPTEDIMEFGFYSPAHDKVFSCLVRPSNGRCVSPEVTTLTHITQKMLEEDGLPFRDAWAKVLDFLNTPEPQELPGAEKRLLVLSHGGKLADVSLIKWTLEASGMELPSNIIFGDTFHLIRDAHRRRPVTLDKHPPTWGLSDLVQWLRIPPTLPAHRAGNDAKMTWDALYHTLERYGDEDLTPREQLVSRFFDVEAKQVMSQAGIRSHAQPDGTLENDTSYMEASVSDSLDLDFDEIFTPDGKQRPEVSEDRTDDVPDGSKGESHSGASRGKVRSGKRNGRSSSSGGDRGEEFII

Results are given in words; binding and its absence hold for the method and conditions named. Binding seen in cells or lysates may run through a third protein. These calls come from enrichment with a bait or labelling near it, and not all partners need be listed.

On to “KP45 (Tb927.3.1100) (from UniProt Q57WZ1)”, for which the binding entry is recorded as “binds”.

Values taken from article doi:10.1101/2024.04.22.590512.
